Binding data for seven molecules are collected here from PMC3641059.

Sequences of proteins named here, by UniProt entry; tags and fusion partners are left off.
UniProt P19658: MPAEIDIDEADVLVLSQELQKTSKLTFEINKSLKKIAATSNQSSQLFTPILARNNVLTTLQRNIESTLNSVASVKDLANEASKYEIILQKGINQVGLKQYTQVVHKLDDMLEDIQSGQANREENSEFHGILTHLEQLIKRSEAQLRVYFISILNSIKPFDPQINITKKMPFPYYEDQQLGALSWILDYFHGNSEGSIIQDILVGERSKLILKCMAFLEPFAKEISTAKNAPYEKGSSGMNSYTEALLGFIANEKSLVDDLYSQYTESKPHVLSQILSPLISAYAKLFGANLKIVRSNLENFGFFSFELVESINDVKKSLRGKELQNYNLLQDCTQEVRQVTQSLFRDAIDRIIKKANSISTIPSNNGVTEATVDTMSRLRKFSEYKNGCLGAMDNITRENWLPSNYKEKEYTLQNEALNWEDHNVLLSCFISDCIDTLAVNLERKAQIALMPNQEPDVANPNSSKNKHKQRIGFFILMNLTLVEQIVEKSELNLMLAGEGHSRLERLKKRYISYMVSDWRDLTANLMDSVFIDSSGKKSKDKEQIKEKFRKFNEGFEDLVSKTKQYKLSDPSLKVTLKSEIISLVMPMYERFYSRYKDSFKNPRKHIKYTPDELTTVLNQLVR

Results are given in words; binding and its absence hold for the method and conditions named. Some results given as binding are weak or reduced against the parent protein; the word gives no strength.

The target of experiment [1] is Exo70-FRB (S. cerevisiae) (UniProt P19658). Kind of experiment: automated PICT screen (co-translocation, automated live-cell imaging); living S. cerevisiae, anchor Pil1-RFP-FKBP, bait Exo70-FRB, 227 C-terminally GFP-tagged prey strains in 96 well plates; vehicle (DMSO) or 10 µM rapamycin for 15-60 min; nine fields of view; ratio of the area of colocalisation with and without rapamycin, one-tailed t-test (p<0.02), and visual inspection.

For experiment [2], the target named is T1, Ste11 (S. cerevisiae) (UniProt P23561).
T1 sequence: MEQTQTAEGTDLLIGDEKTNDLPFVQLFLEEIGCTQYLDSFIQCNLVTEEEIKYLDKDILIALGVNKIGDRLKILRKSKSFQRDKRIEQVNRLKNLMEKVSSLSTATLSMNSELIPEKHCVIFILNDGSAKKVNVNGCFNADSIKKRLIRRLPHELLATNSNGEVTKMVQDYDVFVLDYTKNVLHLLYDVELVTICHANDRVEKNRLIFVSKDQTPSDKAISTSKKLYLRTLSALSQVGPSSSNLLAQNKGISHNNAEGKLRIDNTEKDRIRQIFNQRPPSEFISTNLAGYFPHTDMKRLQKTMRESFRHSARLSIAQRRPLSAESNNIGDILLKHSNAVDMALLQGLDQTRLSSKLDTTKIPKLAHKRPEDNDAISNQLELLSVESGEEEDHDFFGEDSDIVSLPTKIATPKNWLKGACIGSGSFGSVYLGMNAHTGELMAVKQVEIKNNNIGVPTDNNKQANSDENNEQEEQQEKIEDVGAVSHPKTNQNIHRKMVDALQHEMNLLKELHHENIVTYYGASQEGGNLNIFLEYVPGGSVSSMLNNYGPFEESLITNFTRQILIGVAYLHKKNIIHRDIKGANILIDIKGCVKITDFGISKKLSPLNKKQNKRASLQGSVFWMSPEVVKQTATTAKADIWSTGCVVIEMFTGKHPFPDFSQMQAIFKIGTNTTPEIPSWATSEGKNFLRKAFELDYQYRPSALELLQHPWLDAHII
Kind of experiment: PICT (co-translocation of GFP-tagged prey with FRB-tagged bait to an FKBP-tagged anchor, live-cell fluorescence imaging); living S. cerevisiae (tor1-1, FPR1 deleted), anchor Pil1-RFP-FKBP, bait-FRB, prey-GFP; cells grown in SD medium at 25°C, vehicle (DMSO) or 10 µM rapamycin, imaged after 15 min; scored positive when >90% of membrane patches in the GFP channel colocalised with the anchor; also done in ste5Δ and ste50Δ cells.

Experiment [3] addresses T1, Ste11 (S. cerevisiae). In words: PICT-FRAP (fluorescence recovery after photobleaching of GFP-tagged protein recruited to the anchor sites); living S. cerevisiae, anchor Pil1-RFP-FKBP, rapamycin; 488 nm laser bleaching of an anchoring platform; exchange of the GFP-tagged protein followed.

B1: YKL079W (protein, UniProt P32364 1-656)
chain: MHWNIISKEQSSSSVSLPTLDSSEPCHIEVILRAIPEKGLQNNESTFKIDPYENTVLFRTNNPLHETTKETHSTFQFDKVFDANATQEDVQKFLVHPIINDVLNGYNGTVITYGPSFSGKSYSLIGSKESEGILPNICKTLFDTLEKNEETKGDSFSVSVLAFEIYMEKTYDLLVPLPERKPLKLHRSSSKMDLEIKDICPAHVGSYEDLRSYIQAVQNVGNRMACGDKTERSRSHLVFQLHVEQRNRKDDILKNSSLYLVDLHGAEKFDKRTESTLSQDALKKLNQSIEALKNTVRSLSMKERDSAYSAKGSHSSAYRESQLTEVLKDSLGGNRKTKVILTCFLSNVPTTLSTLEFGDSIRQINNKVTDNTTGLNLKKKMDLFIQDMKIKDDNYVAQINILKAEIDSLKSLHNKSLPEDDEKKMLENTKKENIKLKLQLDSITQLLSSSTNEDPNNRIDEEVSEILTKRCEQIAQLELSFDRQMNSNSKLQQELEYKKSKEEALESMNVRLLEQIQLQEREIQELLTTNAILKGELETHTKLTETRSERIKSLESSVKELSLNKSAIPSPRRGSMSSSSGNTMLHIEEGSEISNSPWSANTSSKPLVWGARKVSSSSIATTGSQESFVARPFKKGLNLHSIKVTSSTPKSPSSGS
With B1, the binding entry in experiment [1] is reported as “no binding”.

B2: Ste5 (protein, UniProt P32917 1-917)
chain: MMETPTDNIVSPFHNFGSSTQYSGTLSRTPNQIIELEKPSTLSPLSRGKKWTEKLARFQRSSAKKKRFSPSPISSSTFSFSPKSRVTSSNSSGNEDGNLMNTPSTVSTDYLPQHPHRTSSLPRPNSNLFHASNSNLSRANEPPRAENLSDNIPPKVAPFGYPIQRTSIKKSFLNASCTLCDEPISNRRKGEKIIELACGHLSHQECLIISFGTTSKADVRALFPFCTKCKKDTNKAVQCIPENDELKDILISDFLIHKIPDSELSITPQSRFPPYSPLLPPFGLSYTPVERQTIYSQAPSLNPNLILAAPPKERNQIPQKKSNYTFLHSPLGHRRIPSGANSILADTSVALSANDSISAVSNSVRAKDDETKTTLPLLRSYFIQILLNNFQEELQDWRIDGDYGLLRLVDKLMISKDGQRYIQCWCFLFEDAFVIAEVDNDVDVLEIRLKNLEVFTPIANLRMTTLEASVLKCTLNKQHCADLSDLYIVQNINSDESTTVQKWISGILNQDFVFNEDNITSTLPILPIIKNFSKDVGNGRHETSTFLGLINPNKVVEVGNVHDNDTVIIRRGFTLNSGECSRQSTVDSIQSVLTTISSILSLKREKPDNLAIILQIDFTKLKEEDSLIVVYNSLKALTIKFARLQFCFVDRNNYVLDYGSVLHKIDSLDSISNLKSKSSSTQFSPIWLKNTLYPENIHEHLGIVAVSNSNMEAKKSILFQDYRCFTSFGRRRPNELKIKVGYLNVDYSDKIDELVEASSWTFVLETLCYSFGLSFDEHDDDDEEDNDDSTDNELDNSSGSLSDAESTTTIHIDSPFDNENATANMVNDRNLLTEGEHSNIENLETVASSVQPALIPNIRFSLHSEEEGTNENENENDMPVLLLSDMDKGIDGITRRSSFSSLIESGNNNCPLHMDYI
Regarding B2, in experiment [2], the binding result was “binds”.

B3: Ste50 (protein, UniProt P25344 1-346)
chain: MEDGKQAINEGSNDASPDLDVNGTILMNNEDFSQWSVDDVITWCISTLEVEETDPLCQRLRENDIVGDLLPELCLQDCQDLCDGDLNKAIKFKILINKMRDSKLEWKDDKTQEDMITVLKNLYTTTSAKLQEFQSQYTRLRMDVLDVMKTSSSSSPINTHGVSTTVPSSNNTIIPSSDGVSLSQTDYFDTVHNRQSPSRRESPVTVFRQPSLSHSKSLHKDSKNKVPQISTNQSHPSAVSTANTPGPSPNEALKQLRASKEDSCERILKNAMKRHNLADQDWRQYVLVICYGDQERLLELNEKPVIIFKNLKQQGLHPAIMLRRRGDFEEVAMMNGSDNVTPGGRL
As to B3, the binding entry in experiment [2] and in experiment [3] was “binds” throughout.

B4: YLL010C (protein, UniProt Q07800 1-427)
chain: MGFISSILCCSSETTQSNSNSAYRQQQSSSLNKNRSVKHSNTKSRTRGVHQTNSPPSKTNSAATFSSTERSTGKSGISTNDNEKKKPSSPTAAVTATTTNNMTKVEKRISKDDLYEEKYEVDEDEEIDDEDNRRSRGIVQEKGDAVKDTSRQKKQQQQQQQQSQPQPQPQSQSQSQSQSQSQQRGPTVQVSSDHLIQDMNLSRVSSSSQASETSNDADDEDDEDEEYIDLTLLQQGQYHAPGYNTLLPPQDESTKGKKCLILDLDETLVHSSFKYLRSADFVLSVEIDDQVHNVYVIKRPGVEEFLERVGKLFEVVVFTASVSRYGDPLLDILDTDKVIHHRLFREACYNYEGNYIKNLSQIGRPLSDIIILDNSPASYIFHPQHAIPISSWFSDTHDNELLDIIPLLEDLSVKTSLDVGKILDVTI
As to B4, the binding entry in experiment [1] is “no binding”.

B5: YAR019C (protein, UniProt P27636 1-974)
chain: MNSMADTDRVNLTPIQRASEKSVQYHLKQVIGRGSYGVVYKAINKHTDQVVAIKEVVYENDEELNDIMAEISLLKNLNHNNIVKYHGFIRKSYELYILLEYCANGSLRRLISRSSTGLSENESKTYVTQTLLGLKYLHGEGVIHRDIKAANILLSADNTVKLADFGVSTIVNSSALTLAGTLNWMAPEILGNRGASTLSDIWSLGATVVEMLTKNPPYHNLTDANIYYAVENDTYYPPSSFSEPLKDFLSKCFVKNMYKRPTADQLLKHVWINSTENVKVDKLNKFKEDFTDADYHWDADFQEEKLNISPSKFSLAAAPAAWAENNQELDLMPPTESQLLSQLKSSSKPLTDLHVLFSVCSLENIADTIIECLSRTTVDKRLITAFGSIFVYDTQHNHSRLRLKFIAMGGIPLIIKFEHLAKEFVIDYPQTLIECGIMYPPNFASLKTPKYILELVYRFYDLTSTAFWCRWCFKHLDISLLLNNIHERRAQSILLKLSSYAPWSFEKILPSLIDSKLKKKILISPQITYVVFKSINYMITTNDDKIHKSAIPSSSSLPLSSSPTRNSPVNSVQSPSRSPVHSLMATRPSSPMRHKSISNFPHLTISSKSRLLIELPEGFFTWLTSFFVDMAQIKDLSVLKYFTKLCYLTVHINSTFLNDLLDNDAFFAFIRNIDTIIPFIDDAKTAAFIWKQITAICVEMSLDMDQMSASLFSTAMNFIRKKNNTSISGLEIILNCLHFTLRNVNDDVAPTVGSSESHSVFLIKVNNDAAIELPIDQLVDLFYALNDDDVNLSKLISIFTKICSLPGFENLTINIIFHPNFYEKIVSFFDTYFNSLLIQIDLLKFIKLIFSKSLLKLYDYTGQPDPIKQTEPNRRNKATVFKLRAILVQITEFLNNNWNKDVPKRNSNQVGGDSVLICQLCEDIRSLSKKGSLQKVSSVTAAIGSSPTKDERSNLRSSKDKSDGFSVPITTFQT
As for B5, in experiment [1], the binding result is on record as “no binding”.

B6: YLR096W (protein, UniProt P13186 1-1147)
chain: MPNPNTADYLVNPNFRTSKGGSLSPTPEAFNDTRVAAPATLRMMGKQSGPRNDQQQAPLMPPADIKQGKEQAAQRQNDASRPNGAVELRQFHRRSLGDWEFLETVGAGSMGKVKLVKHRQTKEICVIKIVNRASKAYLHKQHSLPSPKNESEILERQKRLEKEIARDKRTVREASLGQILYHPHICRLFEMCTMSNHFYMLFEYVSGGQLLDYIIQHGSLKEHHARKFARGIASALQYLHANNIVHRDLKIENIMISSSGEIKIIDFGLSNIFDYRKQLHTFCGSLYFAAPELLKAQPYTGPEVDIWSFGIVLYVLVCGKVPFDDENSSILHEKIKKGKVDYPSHLSIEVISLLTRMIVVDPLRRATLKNVVEHPWMNRGYDFKAPSYVPNRVPLTPEMIDSQVLKEMYRLEFIDDIEDTRRSLIRLVTEKEYIQLSQEYWDKLSNAKGLSSSLNNNYLNSTAQQTLIQNHITSNPSQSGYNEPDSNFEDPTLAYHPLLSIYHLVSEMVARKLAKLQRRQALALQAQAQQRQQQQQVALGTKVALNNNSPDIMTKMRSPQKEVVPNPGIFQVPAIGTSGTSNNTNTSNKPPLHVMVPPKLTIPEQAHTSPTSRKSSDIHTELNGVLKSTPVPVSGEYQQRSASPVVGEHQEKNTIGGIFRRISQSGQSQHPTRQQEPLPEREPPTYMSKSNEISIKVPKSHSRTISDYIPSARRYPSYVPNSVDVKQKPAKNTTIAPPIRSVSQKQNSDLPALPQNAELIVQKQRQKLLQENLDKLQINDNDNNNVNAVVDGINNDNSDHYLSVPKGRKLHPSARAKSVGHARRESLKFTRPPIPAALPPSDMTNDNGFLGEANKERYNPVSSNFSTVPEDSTTYSNDTNNRLTSVYSQELTEKQILEEASKAPPGSMPSIDYPKSMFLKGFFSVQTTSSKPLPIVRHNIISVLTRMNIDFKEVKGGFICVQQRPSIETAAVPVITTTGVGLDSGKAMDLQNSLDSQLSSSYHSTASSASRNSSIKRQGSYKRGQNNIPLTPLATNTHQRNSSIPMSPNYGNQSNGTSGELSSMSLDYVQQQDDILTTSRAQNINNVNGQTEQTNTSGIKERPPIKFEIHIVKVRIVGLAGVHFKKVSGNTWLYKELASYILKELNL
For B6, in experiment [1], the binding entry is reported as “no binding”.

B7: YOR008C (protein, UniProt P54867 22-378)
chain: YEYVNCFSSLPSDFSKADSYNWQSSSHCNSECSAKGASYFALYNHSECYCGDTNPSGSESTSSSCNTYCFGYSSEMCGGEDAYSVYQLDSDTNSNSISSSDSSTESTSASSSTTSSTTSSTTSTTSSTTSSTTSSMASSSTVQNSPESTQAAASISTSQSSSTVTSESSLTSDTLATSSTSSQSQDATSIIYSTTFHTEGGSTIFVTNTITASAQNSGSATGTAGSDSTSGSKTHKKKANVGAIVGGVVGGVVGAVAIALCILLIVRHINMKREQDRMEKEYQEAIKPVEYPDKLYASSFSSNHGPSSGSFEEEHTKGQTDINPFDDSRRISNGTFINGGPGGKNNVLTVVNPDEAD
For B7, in experiment [1], the binding result is reported as “no binding”.
